Laboratory results as given in publication PMC12772957.
Numbering of substitutions follows the chain as printed. Where two headings read alike, the source gives them in different places. Results are given in words; binding and its absence hold for the method and conditions named. In cells and extracts the contact can be indirect. Some binding calls cover weakened binding; strength is not graded here. For some assays here: Where a sequence is shown, tags or fusion partners need not be part of it.

Protein sequences, listed by entry. Tags and fused reporters are not part of them. Lines headed by an entry give the natural chain unless they say otherwise; changes in a name come on top. Chains listed by the source or under a name are the forms on record and can include a tag or linker. Residues count along the entry.
UniProt Q9UHD9: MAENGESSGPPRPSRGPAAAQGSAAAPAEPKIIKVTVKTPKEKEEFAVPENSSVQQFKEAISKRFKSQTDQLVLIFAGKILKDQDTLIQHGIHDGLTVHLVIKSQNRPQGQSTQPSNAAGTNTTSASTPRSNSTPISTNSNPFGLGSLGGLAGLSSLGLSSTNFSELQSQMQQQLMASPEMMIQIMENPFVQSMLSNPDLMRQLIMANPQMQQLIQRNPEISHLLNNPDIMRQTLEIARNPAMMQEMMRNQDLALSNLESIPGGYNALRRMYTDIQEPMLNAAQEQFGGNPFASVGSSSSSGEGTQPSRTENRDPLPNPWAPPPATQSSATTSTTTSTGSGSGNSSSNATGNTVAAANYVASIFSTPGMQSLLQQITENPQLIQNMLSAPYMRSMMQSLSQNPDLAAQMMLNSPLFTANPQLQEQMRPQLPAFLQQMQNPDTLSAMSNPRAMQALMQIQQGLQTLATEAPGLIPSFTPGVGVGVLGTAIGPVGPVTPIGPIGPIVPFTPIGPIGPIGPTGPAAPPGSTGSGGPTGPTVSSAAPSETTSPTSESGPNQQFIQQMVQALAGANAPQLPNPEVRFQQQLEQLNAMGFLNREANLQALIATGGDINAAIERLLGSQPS
FLAG-UBQLN2 ΔUBA (AA 1-580): residues 1-580 of Q9UHD9
FLAG-UBQLN2 ΔUBL (AA 1-624 missing AA 33-107) (Q9UHD9, form named): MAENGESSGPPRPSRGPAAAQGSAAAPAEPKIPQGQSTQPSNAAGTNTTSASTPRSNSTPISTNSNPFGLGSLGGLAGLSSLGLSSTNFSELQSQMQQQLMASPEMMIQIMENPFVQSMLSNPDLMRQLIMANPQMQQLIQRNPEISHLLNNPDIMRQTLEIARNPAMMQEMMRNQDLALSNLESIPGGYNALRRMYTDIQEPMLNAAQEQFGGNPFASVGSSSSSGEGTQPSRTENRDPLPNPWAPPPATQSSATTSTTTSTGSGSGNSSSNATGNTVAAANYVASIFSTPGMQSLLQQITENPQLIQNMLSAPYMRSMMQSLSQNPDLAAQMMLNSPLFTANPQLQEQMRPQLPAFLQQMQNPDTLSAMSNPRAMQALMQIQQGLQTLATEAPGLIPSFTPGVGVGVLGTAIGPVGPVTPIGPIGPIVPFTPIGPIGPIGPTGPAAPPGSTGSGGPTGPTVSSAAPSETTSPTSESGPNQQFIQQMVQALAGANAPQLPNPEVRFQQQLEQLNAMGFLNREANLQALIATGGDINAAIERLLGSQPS
ΔSTIs FLAG-UBQLN2 (missing AA 178-248 and AA 379-462) (Q9UHD9, form named): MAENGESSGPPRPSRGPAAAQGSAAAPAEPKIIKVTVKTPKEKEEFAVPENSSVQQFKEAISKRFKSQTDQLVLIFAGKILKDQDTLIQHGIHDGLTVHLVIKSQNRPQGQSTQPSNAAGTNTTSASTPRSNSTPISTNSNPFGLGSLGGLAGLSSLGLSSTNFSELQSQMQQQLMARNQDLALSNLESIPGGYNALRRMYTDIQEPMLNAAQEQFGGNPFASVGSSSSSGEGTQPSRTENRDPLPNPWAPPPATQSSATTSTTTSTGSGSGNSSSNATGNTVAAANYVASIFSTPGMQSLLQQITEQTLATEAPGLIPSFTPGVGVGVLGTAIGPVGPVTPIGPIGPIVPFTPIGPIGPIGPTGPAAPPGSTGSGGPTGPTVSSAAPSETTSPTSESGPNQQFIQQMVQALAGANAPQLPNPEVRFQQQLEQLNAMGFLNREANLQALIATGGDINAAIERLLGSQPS
ΔPXX FLAG-UBQLN2 (missing AA 491-526) (Q9UHD9, form named): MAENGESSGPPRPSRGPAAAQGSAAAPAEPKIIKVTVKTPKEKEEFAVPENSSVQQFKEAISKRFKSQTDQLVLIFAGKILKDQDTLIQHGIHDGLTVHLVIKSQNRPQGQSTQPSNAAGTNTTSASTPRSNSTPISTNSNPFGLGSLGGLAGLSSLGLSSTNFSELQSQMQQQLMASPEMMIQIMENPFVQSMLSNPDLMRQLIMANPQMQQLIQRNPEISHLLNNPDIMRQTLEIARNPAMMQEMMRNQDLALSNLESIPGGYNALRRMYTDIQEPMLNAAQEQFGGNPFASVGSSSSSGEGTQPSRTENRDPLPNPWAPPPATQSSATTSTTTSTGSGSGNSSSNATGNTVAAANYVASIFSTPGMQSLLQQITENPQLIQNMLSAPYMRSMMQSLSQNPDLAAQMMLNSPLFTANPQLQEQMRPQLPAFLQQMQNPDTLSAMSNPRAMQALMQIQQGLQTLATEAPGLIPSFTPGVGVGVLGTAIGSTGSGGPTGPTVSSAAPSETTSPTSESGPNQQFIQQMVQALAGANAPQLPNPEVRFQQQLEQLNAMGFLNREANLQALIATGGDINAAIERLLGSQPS
UniProt P55036: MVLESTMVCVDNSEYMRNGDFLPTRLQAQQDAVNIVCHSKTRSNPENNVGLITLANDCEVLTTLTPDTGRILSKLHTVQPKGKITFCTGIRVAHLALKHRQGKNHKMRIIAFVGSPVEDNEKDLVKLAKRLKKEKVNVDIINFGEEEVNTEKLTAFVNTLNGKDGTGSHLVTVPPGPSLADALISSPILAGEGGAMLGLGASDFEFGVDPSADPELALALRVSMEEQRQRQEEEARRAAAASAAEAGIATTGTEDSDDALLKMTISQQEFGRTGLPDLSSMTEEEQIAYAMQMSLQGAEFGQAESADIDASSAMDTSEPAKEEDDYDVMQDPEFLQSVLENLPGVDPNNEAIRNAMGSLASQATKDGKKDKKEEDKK
UniProt Q05086: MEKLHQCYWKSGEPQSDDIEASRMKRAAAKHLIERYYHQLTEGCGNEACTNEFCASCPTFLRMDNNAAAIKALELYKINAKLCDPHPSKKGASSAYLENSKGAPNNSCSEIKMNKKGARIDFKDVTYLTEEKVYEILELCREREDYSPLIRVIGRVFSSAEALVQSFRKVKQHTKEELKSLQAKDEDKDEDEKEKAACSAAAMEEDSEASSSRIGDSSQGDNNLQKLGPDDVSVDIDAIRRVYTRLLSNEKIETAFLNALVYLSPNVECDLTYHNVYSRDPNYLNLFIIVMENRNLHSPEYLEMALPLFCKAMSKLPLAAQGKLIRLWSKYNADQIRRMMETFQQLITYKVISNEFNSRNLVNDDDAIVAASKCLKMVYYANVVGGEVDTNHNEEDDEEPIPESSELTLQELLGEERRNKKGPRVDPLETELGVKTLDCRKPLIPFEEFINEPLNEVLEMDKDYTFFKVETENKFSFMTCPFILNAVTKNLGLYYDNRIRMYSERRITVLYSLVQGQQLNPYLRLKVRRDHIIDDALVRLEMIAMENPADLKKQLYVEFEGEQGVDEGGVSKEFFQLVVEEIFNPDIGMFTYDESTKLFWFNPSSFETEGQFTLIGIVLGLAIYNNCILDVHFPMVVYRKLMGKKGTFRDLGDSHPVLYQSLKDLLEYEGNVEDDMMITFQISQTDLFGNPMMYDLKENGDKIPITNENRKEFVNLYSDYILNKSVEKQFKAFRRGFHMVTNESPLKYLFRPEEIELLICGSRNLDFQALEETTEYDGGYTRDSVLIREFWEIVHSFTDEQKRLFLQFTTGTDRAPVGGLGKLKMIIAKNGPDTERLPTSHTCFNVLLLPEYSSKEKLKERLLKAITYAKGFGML
UniProt Q9UMX0: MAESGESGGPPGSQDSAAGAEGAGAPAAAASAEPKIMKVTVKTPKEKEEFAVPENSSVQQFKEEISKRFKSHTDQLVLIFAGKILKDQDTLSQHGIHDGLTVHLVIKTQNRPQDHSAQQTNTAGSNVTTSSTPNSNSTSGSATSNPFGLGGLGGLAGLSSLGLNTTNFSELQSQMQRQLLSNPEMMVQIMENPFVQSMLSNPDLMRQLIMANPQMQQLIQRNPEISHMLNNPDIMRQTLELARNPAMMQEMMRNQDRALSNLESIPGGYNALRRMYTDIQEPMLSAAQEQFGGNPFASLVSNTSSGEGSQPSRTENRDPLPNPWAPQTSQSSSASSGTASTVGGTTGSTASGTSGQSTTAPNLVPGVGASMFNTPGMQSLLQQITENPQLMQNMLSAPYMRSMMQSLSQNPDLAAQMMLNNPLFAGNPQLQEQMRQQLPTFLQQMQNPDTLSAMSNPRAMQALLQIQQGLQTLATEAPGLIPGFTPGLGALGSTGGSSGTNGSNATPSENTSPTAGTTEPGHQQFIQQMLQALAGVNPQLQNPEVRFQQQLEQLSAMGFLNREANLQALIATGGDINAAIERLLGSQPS

Tests used:
[1] = molecular target: T1, HA-tagged PEG10 gag-pol^K>R (K393/567/586/590R) (human) (UniProt Q86TG7); test: co-IP; IP with HA-tag antibody or IgG control from WT HEK293 transiently transfected with HA-tagged PEG10 constructs and 3xFLAG-Ub; UBQLN2 seen with an antibody that recognises UBQLN1 and UBQLN2
T1 sequence: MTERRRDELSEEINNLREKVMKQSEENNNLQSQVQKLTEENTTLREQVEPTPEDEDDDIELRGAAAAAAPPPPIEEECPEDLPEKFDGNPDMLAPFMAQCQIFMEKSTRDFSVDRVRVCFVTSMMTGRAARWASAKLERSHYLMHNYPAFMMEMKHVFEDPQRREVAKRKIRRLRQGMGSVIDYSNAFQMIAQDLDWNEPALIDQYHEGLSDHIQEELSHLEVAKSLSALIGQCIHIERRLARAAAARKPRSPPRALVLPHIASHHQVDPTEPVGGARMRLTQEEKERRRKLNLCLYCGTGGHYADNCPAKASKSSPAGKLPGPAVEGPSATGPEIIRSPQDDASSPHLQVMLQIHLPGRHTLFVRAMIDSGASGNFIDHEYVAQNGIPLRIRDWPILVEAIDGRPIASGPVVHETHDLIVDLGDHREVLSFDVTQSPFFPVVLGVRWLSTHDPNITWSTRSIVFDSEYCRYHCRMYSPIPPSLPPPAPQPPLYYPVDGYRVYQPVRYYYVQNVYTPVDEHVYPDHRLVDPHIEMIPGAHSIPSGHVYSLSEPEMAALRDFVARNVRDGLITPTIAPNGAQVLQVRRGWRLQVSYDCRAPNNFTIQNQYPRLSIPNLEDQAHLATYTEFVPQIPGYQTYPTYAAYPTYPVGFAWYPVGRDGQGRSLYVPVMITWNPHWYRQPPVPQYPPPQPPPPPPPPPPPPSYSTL

[2] = molecular target: T2, PEG10, endogenous (gag and gag-pol not told apart in the sentence) (human (endogenous in HEK293)) (UniProt Q86TG7); test: co-IP; IP of endogenous PEG10 with polyclonal PEG10 antibody or IgG control from WT (and TKO) HEK293 lysate; DSP cross-linking; non-denaturing; western blot with an antibody that recognises UBQLN1 and UBQLN2
T2 sequence: T1 sequence with R393K, R567K, R586K, R590K

[3] = molecular target: ubiquilin 2 (UBQLN2), endogenous (human (endogenous in HEK293)) (UniProt Q9UHD9); test: co-IP; IP of endogenous UBQLN2 with UBQLN2-specific antibody (6H9) or IgG control cross-linked to protein A/G resin, from WT HEK293 lysate (untransfected, or transfected with FLAG-UBE3A constructs for 48 h); cells cross-linked with DSP; non-denaturing Triton lysis buffer, 4°C overnight; western …
[4] = molecular target: T2, PEG10, endogenous (gag and gag-pol not told apart in the sentence) (human (endogenous in HEK293)); test: co-IP; IP of endogenous PEG10 (PEG10 antibody or IgG control) from MYC-UBQLN2-expressing TKO cells; cells treated for 16 h with bortezomib, with or without TAK243; UBQLN2 detected by anti-MYC-tag antibody (Fig. S5A right, Fig. 4C)
MYC-UBQLN2 (WT) (human) = MYC-UBQLN2 (WT) (human) (UniProt Q9UHD9); test: co-IP; IP of MYC-UBQLN2 from TKO cells with doxycycline-inducible MYC-UBQLN2; DSP cross-linking; non-denaturing; western blot for PEG10 (Fig. S5A, left)
[5] = molecular target: ubiquilin 2 (UBQLN2), endogenous (human (endogenous in HEK293)) (UniProt Q9UHD9); test: co-IP; IP of endogenous UBQLN2 with UBQLN2-specific antibody (6H9) or IgG control cross-linked to protein A/G resin, from WT HEK293 lysate (untransfected, or transfected with FLAG-UBE3A constructs for 48 h); cells cross-linked with DSP; non-denaturing Triton lysis buffer, 4°C overnight; western …; remark: listed apart in the source
MYC-UBQLN2 P497H (human) = MYC-UBQLN2 P497H (human) (UniProt Q9UHD9); test: co-IP; UBQLN2 variants P497H and P506T tested for interaction with PEG10 (Fig. S5C); which protein was precipitated is not told in what was shown
MYC-UBQLN2 P506T (human) = MYC-UBQLN2 P506T (human) (UniProt Q9UHD9); test: as above
[6] = molecular target: FLAG-UBQLN2 WT (AA 1-624) (human) (UniProt Q9UHD9); test: co-IP; IP with UBQLN2 antibody from TKO HEK293 transfected with FLAG-UBQLN2 constructs (alone, or with FLAG-tagged UBE3A); endogenous PEG10 detected with a polyclonal antibody, UBE3A with a UBE3A antibody
[7] = molecular target: FLAG-UBQLN2 ΔUBA (AA 1-580) (human) (UniProt Q9UHD9); test: as above
[8] = molecular target: FLAG-UBQLN2 ΔUBL (AA 1-624 missing AA 33-107) (human) (UniProt Q9UHD9); test: as above
[9] = molecular target: ΔSTIs FLAG-UBQLN2 (missing AA 178-248 and AA 379-462) (human) (UniProt Q9UHD9); test: as above
[10] = molecular target: ΔPXX FLAG-UBQLN2 (missing AA 491-526) (human) (UniProt Q9UHD9); test: as above

Molecule: ubiquilin 2 (UBQLN2), endogenous (from UniProt Q9UHD9 1-624)
- binding [1]: binds
- binding [2]: binds

Molecule: PSMD4 (also known as Rpn10), endogenous (from UniProt P55036 1-377)
- binding [3]: binds

Molecule: MYC-UBQLN2 (WT) (from UniProt Q9UHD9 1-624)
- binding [4]: binds

Molecule: UBE3A (also known as E6AP), endogenous (from UniProt Q05086 1-875) (enzyme)
- binding [3]: binds

Molecule: ubiquilin 1 (UBQLN1), endogenous (from UniProt Q9UMX0 1-589)
- binding [2]: no binding

B1: PEG10 gag, endogenous (protein, UniProt Q86TG7-2 1-325)
chain: MTERRRDELSEEINNLREKVMKQSEENNNLQSQVQKLTEENTTLREQVEPTPEDEDDDIELRGAAAAAAPPPPIEEECPEDLPEKFDGNPDMLAPFMAQCQIFMEKSTRDFSVDRVRVCFVTSMMTGRAARWASAKLERSHYLMHNYPAFMMEMKHVFEDPQRREVAKRKIRRLRQGMGSVIDYSNAFQMIAQDLDWNEPALIDQYHEGLSDHIQEELSHLEVAKSLSALIGQCIHIERRLARAAAARKPRSPPRALVLPHIASHHQVDPTEPVGGARMRLTQEEKERRRKLNLCLYCGTGGHYADNCPAKASKSSPAGNSPAPL
- binding (MYC-UBQLN2 (WT) (human)): binds
- binding [5]: binds

B2: PEG10, endogenous (gag and gag-pol not told apart in the sentence) (protein, UniProt Q86TG7 1-708)
chain: T1 sequence with R393K, R567K, R586K, R590K
- binding (MYC-UBQLN2 P497H (human)): binds
- binding (MYC-UBQLN2 P506T (human)): binds
- binding [6]: binds
- binding [7]: binds
- binding [8]: binds
- binding [9]: binds

B3: PEG10 gag-pol, endogenous (protein, UniProt Q86TG7 1-708)
chain: T1 sequence with R393K, R567K, R586K, R590K
- binding (MYC-UBQLN2 (WT) (human)): binds
- binding [10]: binds
- binding [5]: binds
